# Test results reported in patent publication US20200340060A1, “COMPOSITIONS AND METHODS FOR IDENTIFYING AND TREATING LIVER DISEASES AND MONITORING TREATMENT OUTCOMES” (Gilead Sciences, Inc., priority 2017, published 2020).
# B1: Endoglin (protein, UniProt P17813 26-658, looked up)
# Endoglin: ETVHCDLQPVGPERGEVTYTTSQVSKGCVAQAPNAILEVHVLFLEFPTGPSQLELTLQASKQNGTWPREVLLVLSVNSSVFLHLQALGIPLHLAYNSSLVTFQEPPGVNTTELPSFPKTQILEWAAERGPITSAAELNDPQSILLRLGQAQGSLSFCMLEASQDMGRTLEWRPRTPALVRGCHLEGVAGHKEAHILRVLPGHSAGPRTVTVKVELSCAPGDLDAVLILQGPPYVSWLIDANHNMQIWTTGEYSFKIFPEKNIRGFKLPDTPQGLLGEARMLNASIVASFVELPLASIVSLHASSCGGRLQTSPAPIQTTPPKDTCSPELLMSLIQTKCADDAMTLVLKKELVAHLKCTITGLTFWDPSCEAEDRGDKFVLRSAYSSCGMQVSASMISNEAVVNILSSSSPQRKKVHCLNMDSLSFQLGLYLSPHFLQASNTIEPGQQSFVQVRVSPSVSEFLLQLDSCHLDLGPEGGTVELIQGRAAKGNCVSLLSPSPEGDPRFSFLLHFYTVPIPKTGTLSCTVALRPKTGSQDQEVHRTVFMRLNIISPDLSGCTSKGLVLPAVLGITFGAFLIGALLTAALWYIYSHTRSPSKREPVVAVAAPASSESSSTNHSIGSTQSTPCSTSSMA
# B2: CPNE1 (protein, UniProt Q99829 1-537, looked up)
# Copine-1: MAHCVTLVQLSISCDHLIDKDIGSKSDPLCVLLQDVGGGSWAELGRTERVRNCSSPEFSKTLQLEYRFETVQKLRFGIYDIDNKTPELRDDDFLGGAECSLGQIVSSQVLTLPLMLKPGKPAGRGTITVSAQELKDNRVVTMEVEARNLDKKDFLGKSDPFLEFFRQGDGKWHLVYRSEVIKNNLNPTWKRFSVPVQHFCGGNPSTPIQVQCSDYDSDGSHDLIGTFHTSLAQLQAVPAEFECIHPEKQQKKKSYKNSGTIRVKICRVETEYSFLDYVMGGCQINFTVGVDFTGSNGDPSSPDSLHYLSPTGVNEYLMALWSVGSVVQDYDSDKLFPAFGFGAQVPPDWQVSHEFALNFNPSNPYCAGIQGIVDAYRQALPQVRLYGPTNFAPIINHVARFAAQAAHQGTASQYFMLLLLTDGAVTDVEATREAVVRASNLPMSVIIVGVGGADFEAMEQLDADGGPLHTRSGQAAARDIVQFVPYRRFQNAPREALAQTVLAEVPTQLVSYFRAQGWAPLKPLPPSAKDPAQAPQA
# B3: CD70 (protein, UniProt P32970 1-193, looked up)
# CD70 antigen: MPEEGSGCSVRRRPYGCVLRAALVPLVAGLVICLVVCIQRFAQAQQQLPLESLGWDVAELQLNHTGPQQDPRLYWQGGPALGRSFLHGPELDKGQLRIHRDGIYMVHIQVTLAICSSTTASRHHPTTLAVGICSPASRSISLLRLSFHQGCTIASQRLTPLARGDTLCTNLTGTLLPSRNTDETFFGVQWVRP
# B4: Ephrin-A5 (protein, UniProt P52803 21-203, looked up)
# Ephrin-A5: QDPGSKAVADRYAVYWNSSNPRFQRGDYHIDVCINDYLDVFCPHYEDSVPEDKTERYVLYMVNFDGYSACDHTSKGFKRWECNRPHSPNGPLKFSEKFQLFTPFSLGFEFRPGREYFYISSAIPDNGRRSCLKLKVFVRPTNSCMKTIGVHDRVFDVNDKVENSLEPADDTVHESAEPSRGEN
# B5: ATS15 (protein, UniProt Q8TE58 213-950, looked up)
# A disintegrin and …: FVSIPRYVETLVVADESMVKFHGADLEHYLLTLLATAARLYRHPSILNPINIVVVKVLLLRDRDSGPKVTGNAALTLRNFCAWQKKLNKVSDKHPEYWDTAILFTRQDLCGATTCDTLGMADVGTMCDPKRSCSVIEDDGLPSAFTTAHELGHVFNMPHDNVKVCEEVFGKLRANHMMSPTLIQIDRANPWSACSAAIITDFLDSGHGDCLLDQPSKPISLPEDLPGASYTLSQQCELAFGVGSKPCPYMQYCTKLWCTGKAKGQMVCQTRHFPWADGTSCGEGKLCLKGACVERHNLNKHRVDGSWAKWDPYGPCSRTCGGGVQLARRQCTNPTPANGGKYCEGVRVKYRSCNLEPCPSSASGKSFREEQCEAFNGYNHSTNRLTLAVAWVPKYSGVSPRDKCKLICRANGTGYFYVLAPKVVDGTLCSPDSTSVCVQGKCIKAGCDGNLGSKKRFDKCGVCGGDNKSCKKVTGLFTKPMHGYNFVVAIPAGASSIDIRQRGYKGLIGDDNYLALKNSQGKYLLNGHFVVSAVERDLVVKGSLLRYSGTGTAVESLQASRPILEPLTVEVLSVGKMTPPRVRYSFYLPKEPREDKSSHPKDPRGPSVLHNSVLSLSNQVEQPDDRPPARWVAGSWGPCSASCGSGLQKRAVDCRGSAGQRTVPACDAAHRPVETQACGEPCPTWELSAWSPCSKSCGRGFQRRSLKCVGHGGRLLARDQCNLHRKPQELDFCVLRPC
# B6: MP2K3 (protein, UniProt P46734 1-347, looked up)
# Dual specificity …: MESPASSQPASMPQSKGKSKRKKDLRISCMSKPPAPNPTPPRNLDSRTFITIGDRNFEVEADDLVTISELGRGAYGVVEKVRHAQSGTIMAVKRIRATVNSQEQKRLLMDLDINMRTVDCFYTVTFYGALFREGDVWICMELMDTSLDKFYRKVLDKNMTIPEDILGEIAVSIVRALEHLHSKLSVIHRDVKPSNVLINKEGHVKMCDFGISGYLVDSVAKTMDAGCKPYMAPERINPELNQKGYNVKSDVWSLGITMIEMAILRFPYESWGTPFQQLKQVVEEPSPQLPADRFSPEFVDFTAQCLRKNPAERMSYLELMEHPFFTLHKTKKTDIAAFVKEILGEDS
# B7: AFP (protein, UniProt P02771 19-609, looked up)
# Alpha-fetoprotein: RTLHRNEYGIASILDSYQCTAEISLADLATIFFAQFVQEATYKEVSKMVKDALTAIEKPTGDEQSSGCLENQLPAFLEELCHEKEILEKYGHSDCCSQSEEGRHNCFLAHKKPTPASIPLFQVPEPVTSCEAYEEDRETFMNKFIYEIARRHPFLYAPTILLWAARYDKIIPSCCKAENAVECFQTKAATVTKELRESSLLNQHACAVMKNFGTRTFQAITVTKLSQKFTKVNFTEIQKLVLDVAHVHEHCCRGDVLDCLQDGEKIMSYICSQQDTLSNKITECCKLTTLERGQCIIHAENDEKPEGLSPNLNRFLGDRDFNQFSSGEKNIFLASFVHEYSRRHPQLAVSVILRVAKGYQELLEKCFQTENPLECQDKGEEELQKYIQESQALAKRSCGLFQKLGEYYLQNAFLVAYTKKAPQLTSSELMAITRKMAATAATCCQLSEDKLLACGEGAADIIIGHLCIRHEMTPVNPGVGQCCTSSYANRRPCFSSLVVDETYVPPAFSDDKFIFHKDLCQAQGVALQTMKQEFLINLVKQKPQITEEQLEAVIADFSGLLEKCCQGQEQEVCFAEEGQKLISKTRAALGV
# B8: 17-beta-HSD 1 (protein, UniProt P14061 2-328, looked up)
# 17-beta-hydroxysteroid …: ARTVVLITGCSSGIGLHLAVRLASDPSQSFKVYATLRDLKTQGRLWEAARALACPPGSLETLQLDVRDSKSVAAARERVTEGRVDVLVCNAGLGLLGPLEALGEDAVASVLDVNVVGTVRMLQAFLPDMKRRGSGRVLVTGSVGGLMGLPFNDVYCASKFALEGLCESLAVLLLPFGVHLSLIECGPVHTAFMEKVLGSPEEVLDRTDIHTFHRFYQYLAHSKQVFREAAQNPEEVAEVFLTALRAPKPTLRYFTTERFLPLLRMRLDDPSGSNYVTAMHREVFGDVPAKAEAGAEAGGGAGPGAEDEAGRGAVGDPELGDPPAAPQ
# Experiment: SOMAscan serum proteomics in NASH subjects treated with selonsertib/simtuzumab, baseline and week 24
# Design: species or system human
# Conditions: serum protein marker level; CRN fibrosis stage improvers; week 24 vs baseline
row,Molecule,Median percent CHG at W24 in improver [%]
1,B1,−3.86
2,B2,2.87
3,B3,3.16
4,B4,−0.13
5,B5,4.2
6,B6,−0.97
7,B7,1.07
8,B8,2.16

# Same assay, conditions: serum protein marker level; CRN fibrosis stage non-improvers; week 24 vs baseline
row,Molecule,Median percent CHG at W24 in Non-improver [%]
1,B1,1.62
2,B2,−4.36
3,B3,−1.88
4,B4,5.39
5,B5,−0.15
6,B6,−3.46
7,B7,−0.39
8,B8,−4.14
